The other results are listed elsewhere or left out.

Chains of the proteins cited; added tags and fusions are not shown.
UniProt Q0JBA9, entry or part of it: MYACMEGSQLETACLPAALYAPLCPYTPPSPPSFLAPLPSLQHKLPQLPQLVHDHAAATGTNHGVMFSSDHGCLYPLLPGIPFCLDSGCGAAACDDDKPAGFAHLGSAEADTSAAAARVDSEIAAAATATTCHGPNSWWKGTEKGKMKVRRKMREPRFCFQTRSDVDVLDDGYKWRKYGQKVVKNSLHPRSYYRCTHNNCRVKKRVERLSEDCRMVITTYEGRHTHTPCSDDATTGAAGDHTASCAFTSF

This test has as its target OsWRKY34 (Oryza sativa, UniProt Q0JBA9 1-250). Kind of test: protein-binding microarray (RPBM); PBS, 2% BSA, 51.3 ng/ul salmon testes DNA, 50 uM zinc acetate, 200 nM TF, 25 C, 1 h; high values mean tight binding. To be noted: protein: recombinant; tags: N-terminal polyhistidine and DsRed monomer fusion (pET32a); label: CyDye5-dUTP incorporated in the synthesized complementary strand; 3' TTTTT single-stranded linker to array surface; dsDNA, one strand shown. The procedure, abridged:
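Binding signal here means per-feature fluorescence intensity in arbitrary units. The values were read on an Axon 4000B scanner after a custom Agilent array, double-stranded by primer extension with Cy5-dUTP, was incubated with 200 nM protein at 25 °C for 1 h in PBS with 2% BSA, salmon testes DNA and 50 µM zinc acetate, then washed. The proteins were transcription factors with an N-terminal polyhistidine tag and DsRed, expressed in E. coli BL21-CodonPlus and purified on Ni–NTA.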
With “AAATCCACTTCACCTAGCAGCCGCTCTCACCTCCACGCGCCGGAGTCACCTAGTGCAG”, the binding signal was 10200 fluorescence intensity (a.u.). “AATTCTGGCGGGGTAGTTTTCTACATCATACACTGTGTAGCGGAGTCACCTAGTGCAG”: the binding signal was 8090 fluorescence intensity (a.u.). The result for “GCTGATGACTTTTCTCCCGGTTTCATATTTTCTTTTAGAACGGAGTCACCTAGTGCAG” reads 14100 fluorescence intensity (a.u.). The result for “ATATATATATATATATATATATATATATATATACACAAGACGGAGTCACCTAGTGCAG” reads 10500 fluorescence intensity (a.u.); that for “CGTCGCGTTCGCGTGCGAGGTGGTGGTGGTGGTGGCTGTACGGAGTCACCTAGTGCAG”, 9000 fluorescence intensity (a.u.); that for “GTTTTTTTGGTTGCAATGGAGTATTTCAGTTTGTAACATTCGGAGTCACCTAGTGCAG”, 8440 fluorescence intensity (a.u.).

For “GGGAGTAGTCTTCTCCTCGGTCCACGACAGTTCACATTACCGGAGTCACCTAGTGCAG”, the binding signal was 9110 fluorescence intensity (a.u.).

Turning to “CATTTTTTTTTGCTATATTTCTCTCGATTCTTCTGTTCTTCGGAGTCACCTAGTGCAG”, the binding signal was 12500 fluorescence intensity (a.u.). On to “CCGCCGGCGACGGCCTCTCACATGCTCTGCAGCTGCAACTCGGAGTCACCTAGTGCAG”, for which the binding signal is 9060 fluorescence intensity (a.u.). With “CGGGTGGTTTTCCATCGGTCCGGGCGGGGTCGCGTGCAATCGGAGTCACCTAGTGCAG”, the binding signal is 12500 fluorescence intensity (a.u.).

Consider “TATATATGCGGTTGGTCAGGCACTCCGGTCGTCTTCCTCGCGGAGTCACCTAGTGCAG”, for which the binding signal was 8550 fluorescence intensity (a.u.).

For the sequence “TATTTTCGTCCGGTTTTTTCCACTCACCAGTCACCACCCCCGGAGTCACCTAGTGCAG”, the binding signal was 8490 fluorescence intensity (a.u.). For “CCATAGCAAGCAATTTGTCTAAAACTACCTGTCCTTTCATCGGAGTCACCTAGTGCAG”, the binding signal was 8660 fluorescence intensity (a.u.).

For “CCAGTTCATCCAGGGTCCACTTCCTCTACCCAGCTCCACTCGGAGTCACCTAGTGCAG”, the binding signal was 9040 fluorescence intensity (a.u.). Take “CCCATGTCCCATTTTAGATCCGCCACTGCCTATTCTATCTCGGAGTCACCTAGTGCAG”: the binding signal was 9030 fluorescence intensity (a.u.). Take “CGCTGCTCTTCTCTTTTACTTTATCTCTTTAAAATATGTTCGGAGTCACCTAGTGCAG”: the binding signal is 8830 fluorescence intensity (a.u.).

Take “TATTATCTTCCGTAAGTTGCACACAAGACCTTTATTTTATCGGAGTCACCTAGTGCAG”: the binding signal is 8900 fluorescence intensity (a.u.). In the case of “CTCCGCCATTCCCGCACCACATGCCGCTCTATCTCTCTCTCGGAGTCACCTAGTGCAG”, the binding signal was 12200 fluorescence intensity (a.u.).

For the sequence “AATTATTTTTCACTTTATCTACTTCCAATATAATTATTCTCGGAGTCACCTAGTGCAG”, the binding signal was 9140 fluorescence intensity (a.u.). With “CTCTATCCTTAATTTTACAGCTGTTCTATAGAATGCAACACGGAGTCACCTAGTGCAG”, the binding signal is 8910 fluorescence intensity (a.u.). With “GTTTTCTTCATGTGTTAACAATTGGCCAGCTTCAATCTGCCGGAGTCACCTAGTGCAG”, the binding signal was 10000 fluorescence intensity (a.u.). Turning to “CAGATGTTCTCCTGTTAAATGTCGCTTTTATAAATACCTCCGGAGTCACCTAGTGCAG”, the binding signal was 8480 fluorescence intensity (a.u.). Take “CGGCCGTCCGCCATCTGCAAAAGGTGTTTTTTCACATGCCCGGAGTCACCTAGTGCAG”: the binding signal was 8560 fluorescence intensity (a.u.).

With “TTCATCTTCATGCCTCCGTCGTCCTCCTAGTCCTCATCTCCGGAGTCACCTAGTGCAG”, the binding signal was 8440 fluorescence intensity (a.u.). “GATTCCGATCTGTACTATGTTTGTAGGGTTTGTATTTTTTCGGAGTCACCTAGTGCAG”: the binding signal is 8840 fluorescence intensity (a.u.). Regarding “AGGAGACGAGAGAGAGAGAGGGGAGGGGAGTGTGATGTGGCGGAGTCACCTAGTGCAG”, the binding signal was 8350 fluorescence intensity (a.u.). The result for “GCTTACGTAGTACTCCATCATCTGCTCTTTTTCCTAACCACGGAGTCACCTAGTGCAG” reads 12800 fluorescence intensity (a.u.); that for “TTTTGCCTAGTTCTCGTGTTGATTGTTGCCTAAGAAAGGACGGAGTCACCTAGTGCAG”, 9580 fluorescence intensity (a.u.); that for “CTAGTTTTGTTTCTTCACACCTTGCATGGCTTGCTCCTTTCGGAGTCACCTAGTGCAG”, 9790 fluorescence intensity (a.u.).

As to “CATCCTCGAGAGCGTCTCCCTCGTCGCCCTATTCCTCTTACGGAGTCACCTAGTGCAG”, the binding signal is 10200 fluorescence intensity (a.u.). Consider “CGCGCTCGTCTGGGCCTGCCTCTGGGTCGCGGCGCCGCCTCGGAGTCACCTAGTGCAG”, for which the binding signal is 8140 fluorescence intensity (a.u.). For the sequence “ATATCCCTTCTCTTCCCTCATCTCTCCACCTCTTCCATCTCGGAGTCACCTAGTGCAG”, the binding signal is 8890 fluorescence intensity (a.u.). The result for “GATGACTTTTTAACTTTATTGTTGCATCATCGCTCTGCACCGGAGTCACCTAGTGCAG” reads 9480 fluorescence intensity (a.u.); that for “TCTCTTCTTTTTCTCATTCCATATCATCAAATGCTTCTACCGGAGTCACCTAGTGCAG”, 10600 fluorescence intensity (a.u.). For the sequence “ATTATGTGCTAATAGCTTTCTAATTTTACGTGTTCAACTTCGGAGTCACCTAGTGCAG”, the binding signal is 8360 fluorescence intensity (a.u.). Regarding “CCATCAATTCTCCGATCCCATCTCGCTCTCGCCATCTGCTCGGAGTCACCTAGTGCAG”, the binding signal is 9870 fluorescence intensity (a.u.). Take “CTGTCGCCATCTCGCGCCACTTCCGCTCCAGTTCCCGCCACGGAGTCACCTAGTGCAG”: the binding signal was 10500 fluorescence intensity (a.u.). As for “ACTATTTACCATTCTGCCACTAGCCGAGGTCTCCTCCTCCCGGAGTCACCTAGTGCAG”, the figure is 8230 fluorescence intensity (a.u.); as for “TGCTCCGTCCGCCGCCGCTCTGCCCCGCCTGTCACCCACTCGGAGTCACCTAGTGCAG”, 10600 fluorescence intensity (a.u.); as for “CTGTTTAATTAGTGTCAGCTCCCACGTCTGTTCCGTGCTGCGGAGTCACCTAGTGCAG”, 9270 fluorescence intensity (a.u.). On to “GGTTCGTCAACAAGGTCAGGGGCGGCGGCCGGGGCGGAGCCGGAGTCACCTAGTGCAG”, for which the binding signal was 9930 fluorescence intensity (a.u.). As to “TGATAATCCGTGTCCAACGTTTGATCGTCCGTCTTATTTACGGAGTCACCTAGTGCAG”, the binding signal was 8920 fluorescence intensity (a.u.).

Regarding “GTATTATTGCAGTTGCCTGTGCCTTCATTTCCACCCACTTCGGAGTCACCTAGTGCAG”, the binding signal is 12400 fluorescence intensity (a.u.). As for “TCCGGCAGCCACCAAGTCCATCGATCGATATCTCACCACACGGAGTCACCTAGTGCAG”, the figure is 10200 fluorescence intensity (a.u.).

Take “TCAAGGGAGGAGGGGTTGGCGGTGATGGAGGAGACGACGACGGAGTCACCTAGTGCAG”: the binding signal was 11700 fluorescence intensity (a.u.). For the sequence “ATTGTTTTTTCTTTTATCTTTCTTCATGCGTTAATTATTACGGAGTCACCTAGTGCAG”, the binding signal was 8610 fluorescence intensity (a.u.). In the case of “CCTTTCTTAGCCACACACCCAGATTCCCCACACCTCTCCCCGGAGTCACCTAGTGCAG”, the binding signal is 10300 fluorescence intensity (a.u.).

As to “GGATATCTTCGAAGACGCCCAGTTGCACACCACCTCCAGACGGAGTCACCTAGTGCAG”, the binding signal is 8170 fluorescence intensity (a.u.).

“GCTCGAGTCCAAGTGTCCAACCCCATCGCATCGCCATCTCCGGAGTCACCTAGTGCAG”: the binding signal is 8540 fluorescence intensity (a.u.). Take “GCCAAATTCCAGCCCTGCAGCAAGCTCACGCCAACTTGCCCGGAGTCACCTAGTGCAG”: the binding signal is 10900 fluorescence intensity (a.u.). Regarding “TTCTACGTATCTTTTCAATCTTCTCTTTTCAACTCAACCACGGAGTCACCTAGTGCAG”, the binding signal was 10100 fluorescence intensity (a.u.). As to “TTGTTTCTATGCTCATAAGAGGCCAAAGCTTTCTTTCTTCCGGAGTCACCTAGTGCAG”, the binding signal was 8910 fluorescence intensity (a.u.).

On to “ATCGAATCGATCGACTCTCTCGTCAGTTGTCACGTCACCGCGGAGTCACCTAGTGCAG”, for which the binding signal is 8820 fluorescence intensity (a.u.). For the sequence “CTATACCAACTCTATTATTTTTGGTTACTCTACTTTAATACGGAGTCACCTAGTGCAG”, the binding signal is 9060 fluorescence intensity (a.u.).

These data come from publication PMC7819943, “Rice protein-binding microarrays: a tool to detect cis-acting elements near promoter regions in rice”.
